The assay concerns the target plant brassinosteroid receptor kinase BRI1 (yeast two-hybrid). Nature of the assay: two-hybrid; BRI1 and BKI1 in wild-type, Δvip1 and Δkcs1 yeast; which was bait is not stated.

These are yes or no findings as the source states them, for the method shown. Binding calls can cover weak binding; strength is not graded here.

B1: inhibitor protein BKI1 (yeast two-hybrid) (protein, UniProt Q9FMZ0 1-337)
chain: METNLQQVKNSSQTFSEKQNPKQEASPSPISSTCSSPSHDFSFTISLQPLSSSSKHISPTLRSPSKTTSSYQQTDPFAVDLSPADEIFFHGHLLPLHLLSHLPVSPRTSTGSYNDGFTLPVKDILPDQPTNNNNNTENAITNISTEAKDDNTEDKAEGEIRVKTKPIKSFSLFGLSKWRKGFESNEREQEQQQQKIKKPMSLDLSHAVKKYIRMLFQKRGNGTQFWNRRQTSSYSFSSSLMGPNGNSKTMINGSYNKRDLIRGRRGELFSAPASMRTSPTNSGHLRVSTAGLSSSSGSTSSSSSDSTMEELQAAIQAAIAHCKNSSAVDRDDKVKDS
Take B1: the binding entry is “binds”.
